{
  "source": "patent US5378803A",
  "about": "(Sterling Winthrop Inc., priority 1992, dated 1995)",
  "test": "general procedure: solution-phase peptide synthesis; dicyclohexylcarbodiimide/N-hydroxysuccinimide; mixed anhydride (isobutyl chlorof)",
  "key": {"[1]": {"settings": "coupling step, acetate, phosphate or methanesulfonate salts"}, "[2]": {"settings": "coupling step, assuming monoacetate salt, acetate, phosphate or methanesulfonate salts"}, "[3]": {"settings": "late stage modification step, acetate, phosphate or methanesulfonate salts"}, "[4]": {"settings": "late stage modification step, monoacetate salt sesquihydrate"}},
  "note": "Strings that start with PEPTIDE1 are HELM notation: dots part the residues, brackets hold end groups and non-standard residues.",
  "data": [
    {"substance": "Boc-Example 2", "values": [
      {"measurement": "step yield", "setting": "[1]", "result": 80, "unit": "% yield"}
    ]},
    {"substance": "Boc-Example 3", "values": [
      {"measurement": "step yield", "setting": "[1]", "result": 70, "unit": "% yield"}
    ]},
    {"substance": "Boc-Example 4", "values": [
      {"measurement": "step yield", "setting": "[1]", "result": 73, "unit": "% yield"}
    ]},
    {"substance": "Boc-Example 5", "values": [
      {"measurement": "step yield", "setting": "[1]", "result": 78, "unit": "% yield"}
    ]},
    {"substance": "Boc-Example 6", "values": [
      {"measurement": "step yield", "setting": "[1]", "result": 86, "unit": "% yield"}
    ]},
    {"substance": "Boc-Example 9", "values": [
      {"measurement": "step yield", "setting": "[1]", "result": 79, "unit": "% yield"}
    ]},
    {"substance": "Boc-Example 10", "values": [
      {"measurement": "step yield", "setting": "[1]", "result": 42, "unit": "% yield"}
    ]},
    {"substance": "Boc-Example 11", "values": [
      {"measurement": "step yield", "setting": "[2]", "result": 65, "unit": "% yield"}
    ]},
    {"substance": "Boc-Example 12", "values": [
      {"measurement": "step yield", "setting": "[2]", "result": 80, "unit": "% yield"}
    ]},
    {"substance": "Boc-Pro-trp-Phe-trp-NHNH2", "values": [
      {"measurement": "step yield", "setting": "[3]", "result": 80, "unit": "% yield"}
    ]},
    {"substance": "PEPTIDE1{P.[D-Trp(NH)Phe].[dW].L.F.[am]}$$$$V2.0", "values": [
      {"measurement": "step yield", "setting": "[3]", "result": 66, "unit": "% yield"}
    ]},
    {"substance": "PEPTIDE1{P.[D-Trp(S)Phe].[D-Trp(S)Leu].[NHCH2CH(Bzl)NH2]}$$$$V2.0", "values": [
      {"measurement": "step yield", "setting": "[3]", "result": 66, "unit": "% yield"}
    ]},
    {"substance": "PEPTIDE1{P.[D-Trp(S)Phe].[dW].L.F.[am]}$$$$V2.0", "values": [
      {"measurement": "step yield", "setting": "[4]", "result": 84, "unit": "% yield"},
      {"measurement": "isolated yield", "setting": "whole synthesis, overall over last three steps, diacetate salt monohydrate", "result": 50, "unit": "% overall yield"}
    ]},
    {"substance": "PEPTIDE1{P.[D-Trp(S)Phe].[dW].L.F}$$$$V2.0", "values": [
      {"measurement": "step yield", "setting": "[3]", "result": 77, "unit": "% yield"}
    ]},
    {"substance": "PEPTIDE1{P.[D-Trp(S)Phe].[dW].L.[x-MePhe].[am]}$$$$V2.0", "values": [
      {"measurement": "step yield", "setting": "[3]", "result": 6, "unit": "% yield"}
    ]},
    {"substance": "PEPTIDE1{P.[L-Trp(S)Phe].[dW].L.F.[am]}$$$$V2.0", "values": [
      {"measurement": "step yield", "setting": "[4]", "result": 83, "unit": "% yield"}
    ]},
    {"substance": "PEPTIDE1{P.[dW].[L-Phe(NH)Trp].L.F.[am]}$$$$V2.0", "values": [
      {"measurement": "step yield", "setting": "late stage modification step, phosphate (1:1) salt", "result": 63, "unit": "% yield"}
    ]},
    {"substance": "PEPTIDE1{P.[dW].[L-Phe(S)Trp].L.F.[am]}$$$$V2.0", "values": [
      {"measurement": "step yield", "setting": "late stage modification step, phosphate (2:1) salt monoacetate dihydrate", "result": 43, "unit": "% yield"}
    ]}
  ]
}
